From US7803524 (dated 2010)
Plain letter strings leave the end groups untold.

Experiment: Boc solid-phase peptide synthesis
Conditions: whole synthesis, HPLC

Row | Sequence | purity (crude or final not stated) [%] | final purity (method not given) [%]
1 | NQQRLNLWGCKGKLICYTSVKWN | 81 | 
2 | DQQLLGIWGCSGKLICTTAVPWN |  | 87
